# Experimental data published in PubChem BioAssay.
# Amino acid sequences for entries named in this document (tags omitted).
# UniProt P08183, whole entry, looked up: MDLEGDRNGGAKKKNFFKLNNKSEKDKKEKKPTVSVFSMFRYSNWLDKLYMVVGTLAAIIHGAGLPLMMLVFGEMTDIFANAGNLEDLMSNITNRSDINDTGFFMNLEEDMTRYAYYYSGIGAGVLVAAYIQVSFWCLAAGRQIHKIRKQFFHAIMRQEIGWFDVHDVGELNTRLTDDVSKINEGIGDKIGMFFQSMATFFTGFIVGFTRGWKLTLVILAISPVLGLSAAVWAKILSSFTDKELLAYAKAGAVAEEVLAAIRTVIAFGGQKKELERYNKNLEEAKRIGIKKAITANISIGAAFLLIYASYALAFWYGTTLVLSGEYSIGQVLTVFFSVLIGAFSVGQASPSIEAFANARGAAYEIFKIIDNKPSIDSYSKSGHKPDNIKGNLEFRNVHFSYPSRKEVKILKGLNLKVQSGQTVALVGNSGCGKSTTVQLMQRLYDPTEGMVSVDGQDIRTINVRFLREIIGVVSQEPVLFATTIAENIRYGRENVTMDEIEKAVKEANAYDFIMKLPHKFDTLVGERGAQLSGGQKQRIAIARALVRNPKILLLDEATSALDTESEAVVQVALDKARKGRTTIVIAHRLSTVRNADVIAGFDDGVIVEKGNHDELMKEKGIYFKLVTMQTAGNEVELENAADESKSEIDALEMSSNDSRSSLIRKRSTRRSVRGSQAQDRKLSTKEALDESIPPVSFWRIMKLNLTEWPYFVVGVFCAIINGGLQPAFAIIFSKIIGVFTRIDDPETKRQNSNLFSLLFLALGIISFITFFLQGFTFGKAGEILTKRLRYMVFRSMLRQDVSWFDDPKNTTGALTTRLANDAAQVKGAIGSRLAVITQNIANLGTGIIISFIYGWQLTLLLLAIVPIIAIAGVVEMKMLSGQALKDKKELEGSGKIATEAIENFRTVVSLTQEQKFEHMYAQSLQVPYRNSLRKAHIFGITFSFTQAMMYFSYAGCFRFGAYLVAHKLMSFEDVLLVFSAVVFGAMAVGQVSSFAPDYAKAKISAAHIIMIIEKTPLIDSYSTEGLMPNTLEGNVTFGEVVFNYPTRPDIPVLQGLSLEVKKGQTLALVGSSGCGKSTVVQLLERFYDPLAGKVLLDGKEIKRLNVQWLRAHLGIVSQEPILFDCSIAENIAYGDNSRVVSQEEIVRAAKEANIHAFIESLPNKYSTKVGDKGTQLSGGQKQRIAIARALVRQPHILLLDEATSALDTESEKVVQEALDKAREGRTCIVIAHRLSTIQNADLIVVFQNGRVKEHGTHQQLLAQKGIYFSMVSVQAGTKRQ
# This list was built around the results that the source calls inconclusive (neither active nor inactive); the mix of calls is not that of the screen. For some of these results: A potency beside an inconclusive call is a rough fit, not a confirmed value. Activity calls are given as the source filed them. Unless noted, the limit is not given here; nearly all actives have AC50 up to about 26 µM.
# Legend:
# [1] = growth inhibition of DIPG glioma cells, dose response, cell-based, SU-DIPG-XVII, MIPE5.0, CellTiter-Glo, qHTS (AID 1347060); conditions: SU-DIPG-XVII viability, CellTiter-Glo ATP luminescence;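 as to AC50: cells exposed to compound for 48 hours before viability readout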
# [2] = growth inhibition of DIPG glioma cells, dose response, cell-based, SU-DIPG-XIII, MIPE5.0, CellTiter-Glo, qHTS (AID 1347064; cut-off not given, nearly all actives have AC50 up to about 23 µM;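 as to AC50: cells exposed to compound for 48 hours before the viability read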); conditions: SU-DIPG-XIII viability, CellTiter-Glo ATP luminescence
# [3] = viability loss in pontine glioma line – cell-based, SU-DIPG-XXV, MIPE5.0, CellTiter-Glo, qHTS, dose response (AID 1347065); conditions: CellTiter-Glo ATP luminescence;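 also: cells exposed to compound for 48 hours before ATP readout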
# [4] = JHH-DIPG-1 glioma cell viability, MIPE5.0 library, CellTiter-Glo luminescence, qHTS (AID 1347067); conditions: JHH-DIPG-1 glioma viability, CellTiter-Glo ATP luminescence;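 also: cells exposed to compound for 48 hours before readout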
# [5] = SU-DIPG-XXV glioma cell viability, MIPE5.0 library, qHTS (AID 1347068; cut-off not given, nearly all actives have IC50 up to about 30 µM;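 as to IC50: cells exposed to compound for 48 hours before viability readout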)
# [6] = target: ATP-dependent translocase ABCB1 (Homo sapiens) (UniProt P08183); test: MDR1 (ABCB1) efflux transporter inhibition, cell-based (AID 377; in the data active = fluorescence slope change above about 50%; inconclusive = mostly about 31% to 49%); conditions: MDR1-expressing cells, fluorescent substrate accumulation slope; hits give high values; concentration not given here
compound,measurement,setting,value
Cn1cc(-c2cnn3c(N)c(Br)c(C4CCCNC4)nc23)cn1 (stereo not drawn),AC50,[1],inconclusive: 26.3 µM [cytotoxic]
same,AC50,[2],inconclusive: 16.6 µM [cytotoxic]
same,AC50,[3],inconclusive: 37.2 µM [cytotoxic]
same,outcome,[4],inactive
same,IC50,[5],inconclusive: 20.9 µM [cytotoxic]
Cc1cc(C)c(CNC(=O)c2cc(-c3ccc(CN4CCOCC4)cc3)cc3c2cnn3C2CCCC2)c(=O)[nH]1,AC50,[1],inconclusive: 37.2 µM [cytotoxic]
same,AC50,[2],inconclusive: 29.5 µM [cytotoxic]
same,AC50,[3],inconclusive: 26.3 µM [cytotoxic]
same,AC50,[4],inconclusive: 33.2 µM [cytotoxic]
same,IC50,[5],inconclusive: 37.2 µM [cytotoxic]
COc1cc(Nc2cnc(C#N)c(O[C@H](C)CN(C)C)n2)ncc1-c1cnn(C)c1,AC50,[1],inconclusive: 13.2 µM [cytotoxic]
same,AC50,[2],inconclusive: 8.33 µM [cytotoxic]
same,AC50,[3],inconclusive: 9.34 µM [cytotoxic]
same,AC50,[4],inconclusive: 6.61 µM [cytotoxic]
same,IC50,[5],inconclusive: 7.42 µM [cytotoxic]
Clc1ccc(Cn2c(CN3CCCC3)nc3ccccc32)cc1,fluorescence slope change,[6],active: 82.8%
same,AC50,[1],inconclusive: 29.5 µM [cytotoxic]
same,AC50,[2],inconclusive: 5.25 µM [cytotoxic]
same,AC50,[3],inconclusive: 33.2 µM [cytotoxic]
same,outcome,[4],inactive
COCCN1CCN(Cc2ccc(-c3n[nH]c4c3C(=O)c3c(NC(=O)NN5CCOCC5)cccc3-4)cc2)CC1,AC50,[1],active: 0.295 µM
same,AC50,[2],inconclusive: 23.5 µM [cytotoxic]
same,AC50,[3],active: 0.235 µM
same,AC50,[4],inconclusive: 0.661 µM [cytotoxic]
same,IC50,[5],active: 0.263 µM
C/C=C(/C)C(=O)O[C@H]1C(C)=CC23C(=O)C(C=C(CO)[C@@H](O)[C@]12O)[C@H]1[C@@H](C[C@H]3C)C1(C)C (stereo partly drawn),AC50,[1],inconclusive: 16.6 µM [cytotoxic]
same,AC50,[2],inconclusive: 26.3 µM [cytotoxic]
same,AC50,[3],inconclusive: 13.2 µM [cytotoxic]
same,AC50,[4],inconclusive: 37.2 µM [cytotoxic]
same,outcome,[5],inactive
CC[C@@]1(O)C(=O)OCc2c1cc1n(c2=O)Cc2c-1nc1cc(F)c(C)c3c1c2[C@@H](N)CC3,AC50,[1],active: 0.00235 µM
same,AC50,[2],inconclusive: 0.0332 µM [cytotoxic]
same,AC50,[3],inconclusive: 9.34 µM [cytotoxic]
same,AC50,[4],inconclusive: 0.525 µM [cytotoxic]
same,IC50,[5],inconclusive: 23.5 µM
Cc1cc(-n2c(=O)ccc3cnc4[nH]ccc4c32)ccc1F,AC50,[1],inconclusive: 20.9 µM [cytotoxic]
same,AC50,[2],inconclusive: 14.8 µM [cytotoxic]
same,AC50,[3],inconclusive: 20.9 µM [cytotoxic]
same,AC50,[4],inconclusive: 26.3 µM [cytotoxic]
same,IC50,[5],inconclusive: 13.2 µM [cytotoxic]
O=C(N[C@H]1CCC[C@H](CO)C1)C1CCN(c2nc3cc(Cl)c(-c4ccc(Cl)cc4)cc3o2)CC1,AC50,[1],inconclusive: 14.8 µM [cytotoxic]
same,AC50,[2],inconclusive: 0.00105 µM
same,AC50,[3],inconclusive: 29.5 µM [cytotoxic]
same,AC50,[4],inconclusive: 23.5 µM [cytotoxic]
same,IC50,[5],inconclusive: 26.3 µM [cytotoxic]
Nc1nc(OCc2cc(Br)cs2)c2[nH]cnc2n1,outcome,[1],inactive
same,AC50,[2],inconclusive: 37.2 µM [cytotoxic]
same,AC50,[3],inconclusive: 16.6 µM [cytotoxic]
same,AC50,[4],inconclusive: 37.2 µM [cytotoxic]
same,outcome,[5],inactive
CNCc1ccc(C)c(NC(=O)c2ccc(Nc3nc(-c4ccccc4)c4ccccc4n3)cc2)c1,AC50,[1],inconclusive: 37.2 µM [cytotoxic]
same,AC50,[2],inconclusive: 37.2 µM [cytotoxic]
same,AC50,[3],inconclusive: 26.3 µM [cytotoxic]
same,AC50,[4],inconclusive: 37.2 µM [cytotoxic]
same,IC50,[5],inconclusive: 37.2 µM [cytotoxic]
N#Cc1cccnc1N1CCN(C(=O)c2cccc(Cc3n[nH]c(=O)c4ccccc34)c2)CC1,AC50,[1],active: 0.059 µM
same,AC50,[2],inconclusive: 29.5 µM [cytotoxic]
same,AC50,[3],inconclusive: 2.09 µM [cytotoxic]
same,AC50,[4],inconclusive: 2.63 µM [cytotoxic]
same,outcome,[5],inactive
COc1ccc2[nH]c(S(=O)Cc3ncc(C)c(OC)c3C)nc2c1 (stereo not drawn),AC50,[1],inconclusive: 37.2 µM [cytotoxic]
same,AC50,[2],inconclusive: 0.00833 µM [cytotoxic]
same,AC50,[3],inconclusive: 0.00118 µM [cytotoxic]
same,outcome,[5],inactive
Cc1c(-c2ccnn2C)cc(C(=O)NCc2ccc(S(C)(=O)=O)cn2)c(=O)n1-c1cccc(C(F)(F)F)c1,outcome,[1],inactive
same,AC50,[2],inconclusive: 3.72 µM
same,outcome,[3],inactive
same,IC50,[5],inconclusive: 0.00209 µM
Cc1cc2c(cc1CC(=O)c1sccc1S(=O)(=O)Nc1onc(C)c1Cl)OCO2,outcome,[1],inactive
same,AC50,[2],inconclusive: 37.2 µM [cytotoxic]
same,outcome,[3],inactive
same,IC50,[5],inconclusive: 3.72 µM
CC[C@@H](Oc1cccc(CN(CCCOc2ccc(OC)cc2)c2nc3ccccc3o2)c1)C(=O)O,outcome,[1],inactive
same,AC50,[2],inconclusive: 6.61 µM [cytotoxic]
same,outcome,[3],inactive
same,outcome,[5],inactive
CC(C)(O)CNc1ncc(-c2ccnc(Nc3ccncc3)n2)c(CC2CC2)n1,AC50,[1],active: 16.6 µM
same,AC50,[2],inconclusive: 26.3 µM [cytotoxic]
same,AC50,[3],inconclusive: 16.6 µM [cytotoxic]
same,IC50,[5],active: 23.5 µM
O=c1cc(N2CCOCC2)oc2c(-c3ccc4c(c3)OCCO4)csc12,AC50,[1],active: 5.25 µM
same,AC50,[2],active: 6.61 µM
same,AC50,[3],active: 8.33 µM
same,IC50,[5],inconclusive: 9.34 µM [cytotoxic]
Cc1cccc(-c2nn3c(c2-c2ccnc4ccc(C(N)=O)cc24)CCC3)n1,outcome,[1],inactive
same,AC50,[2],inconclusive: 0.00105 µM
same,AC50,[3],inconclusive: 0.00105 µM
same,IC50,[5],inconclusive: 0.00235 µM
C[C@H]1CNCCCN1S(=O)(=O)c1cccc2cncc(F)c12,AC50,[1],inconclusive: 18.2 µM [cytotoxic]
same,outcome,[2],inactive
same,AC50,[3],inconclusive: 0.000512 µM [cytotoxic]
same,outcome,[5],inactive
CC(C)(c1ccc(OCC(O)CO)cc1)c1ccc(OCC(O)CCl)cc1 (stereo not drawn),outcome,[1],inactive
same,AC50,[2],inconclusive: 0.00417 µM
same,AC50,[3],inconclusive: 1.66 µM
same,outcome,[5],inactive
CC1(N)CCN(c2cccnc2NC(=O)c2nc(-c3ncccc3C(F)(F)F)cnc2N)CC1,AC50,[1],inconclusive: 18.6 µM [cytotoxic]
same,outcome,[2],inactive
same,AC50,[3],inconclusive: 4.68 µM
same,IC50,[5],inconclusive: 13.2 µM
O=C(Nc1cccnc1)c1cc(-c2ccnc(F)c2)ccc1OCc1ccccc1,AC50,[1],inconclusive: 23.5 µM [cytotoxic]
same,AC50,[2],inconclusive: 14.8 µM [cytotoxic]
same,AC50,[3],inconclusive: 14.8 µM [cytotoxic]
same,IC50,[5],inconclusive: 0.00525 µM
Cc1nc2ccc(C(=O)N3CCC4(CC3)CC(=O)c3c(cnn3C(C)C)C4)cc2[nH]1,AC50,[1],inconclusive: 20.9 µM [cytotoxic]
same,outcome,[2],inactive
same,AC50,[3],inconclusive: 14.8 µM [cytotoxic]
same,IC50,[5],inconclusive: 13.2 µM [cytotoxic]
CCN(CC)CCCC[C@H](NC(=O)[C@H](CC(C)C)NC(=O)[C@H](C)NC(=O)[C@H](Cc1ccccc1)NC(=O)c1ccc(C(C)(C)C)cc1)C(=O)N[C@@H](CO)C(=O)OC,outcome,[1],inactive
same,AC50,[2],inconclusive: 0.00468 µM [cytotoxic]
same,outcome,[3],inactive
same,outcome,[5],inactive
CS(=O)(=O)Nc1cc2occ(NC=O)c(=O)c2cc1Oc1ccccc1,outcome,[1],inactive
same,outcome,[2],inactive
same,AC50,[3],inconclusive: 37.2 µM
same,outcome,[5],inactive
CC1Cc2ccccc2N1C(=O)Cc1nc(N2CCOCC2)cc(=O)[nH]1 (stereo not drawn),AC50,[1],inconclusive: 16.6 µM [cytotoxic]
same,AC50,[2],inconclusive: 1.18 µM [cytotoxic]
same,AC50,[3],inconclusive: 11.8 µM [cytotoxic]
same,IC50,[5],inconclusive: 11.8 µM [cytotoxic]
Cc1ccc(NS(=O)(=O)c2ccc3c(c2)C2C=CCC2C(c2ccc(C(=O)O)cc2)N3)cc1C (stereo not drawn),AC50,[1],inconclusive: 29.5 µM [cytotoxic]
same,outcome,[2],inactive
same,AC50,[3],inconclusive: 16.6 µM [cytotoxic]
same,outcome,[5],inactive
Nc1nc2c(c(=O)[nH]1)N1CN(c3ccc(C(=O)N[C@@H](CCC(=O)O)C(=O)O)cc3)CC1CN2 (stereo partly drawn),AC50,[1],inconclusive: 2.09 µM [cytotoxic]
same,outcome,[2],inactive
same,AC50,[3],inconclusive: 13.2 µM [cytotoxic]
same,IC50,[5],inconclusive: 18.6 µM [cytotoxic]
CN(C(=O)c1c(O)c2ccccc2n(C)c1=O)c1ccccc1,outcome,[1],inactive
same,AC50,[2],inconclusive: 0.209 µM [cytotoxic]
same,AC50,[3],inconclusive: 0.0166 µM [cytotoxic]
same,outcome,[5],inactive
CC(C)C[C@H](NC(=O)[C@H](Cc1ccccc1)NC(=O)OCc1ccccc1)C(=O)C=O,AC50,[1],inconclusive: 37.2 µM [cytotoxic]
same,AC50,[2],inconclusive: 33.2 µM [cytotoxic]
same,AC50,[3],inconclusive: 29.5 µM [cytotoxic]
same,IC50,[5],inconclusive: 18.6 µM [cytotoxic]
COc1cc2c(NC3CCN(C)CC3)nc(N3CCCN(C)CC3)nc2cc1OCCCN(C)C,outcome,[1],inactive
same,AC50,[2],inconclusive: 2.95 µM [cytotoxic]
same,outcome,[3],inactive
same,outcome,[5],inactive
Cc1nc(C)c(CN2CCN(C(c3ccc(F)cc3)c3ccc(F)cc3)CC2)nc1C,AC50,[1],inconclusive: 37.2 µM [cytotoxic]
same,AC50,[2],inconclusive: 37.2 µM [cytotoxic]
same,AC50,[3],active: 23.5 µM
same,outcome,[5],inactive
Cc1nc2cccc(N)c2c(=O)n1C1CCC(=O)NC1=O (stereo not drawn),outcome,[1],inactive
same,AC50,[2],inconclusive: 0.209 µM [cytotoxic]
same,AC50,[3],inconclusive: 4.68 µM [cytotoxic]
same,outcome,[5],inactive

# Part of the list above, reformatted:
compound	measurement	setting	value
Clc1ccc(Cn2c(CN3CCCC3)nc3ccccc32)cc1	AC50	[1]	inconclusive: 29.5 µM [cytotoxic]
Nc1nc(OCc2cc(Br)cs2)c2[nH]cnc2n1	AC50	[2]	inconclusive: 37.2 µM [cytotoxic]
CNCc1ccc(C)c(NC(=O)c2ccc(Nc3nc(-c4ccccc4)c4ccccc4n3)cc2)c1	AC50	[4]	inconclusive: 37.2 µM [cytotoxic]
CC[C@@H](Oc1cccc(CN(CCCOc2ccc(OC)cc2)c2nc3ccccc3o2)c1)C(=O)O	AC50	[2]	inconclusive: 6.61 µM [cytotoxic]
CC1Cc2ccccc2N1C(=O)Cc1nc(N2CCOCC2)cc(=O)[nH]1 (stereo not drawn)	AC50	[3]	inconclusive: 11.8 µM [cytotoxic]
